Publication doi:10.1101/2025.08.05.668837

Target: FLAG-tagged Xenopus laevis RecQL4 wildtype (FLAG-HRV3C-xRecQL4) (Xenopus laevis)
Experiment: co-IP

B1: untagged Xenopus laevis Mcm10 (protein, UniProt Q5EAW4 1-860)
chain: MEVDADLELLTSLLEENEAAERNGVVSHEASSELDEFDELFDGDEDGSYHGSDNGTEEQTIGGVEEDFTTLFGDIDDIKEEEAAASDTKKQSSSVCQEKSKDELEDELRKMQAQMKKLQEQLQKTALAKTSSPGNPKKSPENKMVQSGKTSRTSPLIERKKTDSNTVAPQLTSPTVPKAKLPDAPKRKQNLSDKSPVQKKMASFLSPPEKSSARPGQSTATQPITNTLKSPVGQQYHVEKFSGLRIRKPRVSSSEMERKMNGRKLIRLAQLQNKIATEKLEEEDWVTFGVIVKKITPQSSNNGKTFSIWRLNDLKDLDKYISLFLFGDVHKEHWKTDQGTVIGLLNANPMKPKEGTDEVCLSVDNPQKVLLMGDAVDLGTCKARKKNGDPCTQMVNLNDCEYCQYHVQAQYKKVSSKRADLQSSYSGHVPKKMARGANGLRERLCQGGFHYGGVSSMAYAATLGSTTAPKKTVQSTLSNMVVRGAEAIALEARQKIAAAKNVVQTDEFKELMTLPTPGALNLKKHLSGVSPQANCGKEGQPIQSISASTLLKQQKQQMLNARKKRAEESQKRFLESTEKSEKSSTLTSSACSVFQSPKQGAEFPNAQKMATPKLGRGFAEGDDVLFFDISPPPAPKLSTSAEAKKLLAIQKLQAKGQTLAKTDPNSIKRKRGSSSEELVAQRVASHASTSPKSPDENEPAIKKHRDQLAYLESEEFQKILNAKSKHTGILKEAEVEIQEHYFDPLVKKEQLEEKMQSIREQSCRVVTCKTCKYTHFKPKETCVSENHDFHWHNGVKRFFKCPCGNRTISLDRLPKKHCSTCGLFKWERVGMLKEKTGPKLGGETLLPRGEEHGKFLNSLK
For B1, the binding was “binds”.

No constants are given. Whether binding was seen depends on the method and setting. In cells and extracts the contact can be indirect. Binding calls can cover weak binding; strength is not graded here. Sequences can lack the tags named with a protein.
